The record followed here is PMC8315796.

Sequences of proteins named here, by UniProt entry; tags and fusion partners are left off.
UniProt Q16665: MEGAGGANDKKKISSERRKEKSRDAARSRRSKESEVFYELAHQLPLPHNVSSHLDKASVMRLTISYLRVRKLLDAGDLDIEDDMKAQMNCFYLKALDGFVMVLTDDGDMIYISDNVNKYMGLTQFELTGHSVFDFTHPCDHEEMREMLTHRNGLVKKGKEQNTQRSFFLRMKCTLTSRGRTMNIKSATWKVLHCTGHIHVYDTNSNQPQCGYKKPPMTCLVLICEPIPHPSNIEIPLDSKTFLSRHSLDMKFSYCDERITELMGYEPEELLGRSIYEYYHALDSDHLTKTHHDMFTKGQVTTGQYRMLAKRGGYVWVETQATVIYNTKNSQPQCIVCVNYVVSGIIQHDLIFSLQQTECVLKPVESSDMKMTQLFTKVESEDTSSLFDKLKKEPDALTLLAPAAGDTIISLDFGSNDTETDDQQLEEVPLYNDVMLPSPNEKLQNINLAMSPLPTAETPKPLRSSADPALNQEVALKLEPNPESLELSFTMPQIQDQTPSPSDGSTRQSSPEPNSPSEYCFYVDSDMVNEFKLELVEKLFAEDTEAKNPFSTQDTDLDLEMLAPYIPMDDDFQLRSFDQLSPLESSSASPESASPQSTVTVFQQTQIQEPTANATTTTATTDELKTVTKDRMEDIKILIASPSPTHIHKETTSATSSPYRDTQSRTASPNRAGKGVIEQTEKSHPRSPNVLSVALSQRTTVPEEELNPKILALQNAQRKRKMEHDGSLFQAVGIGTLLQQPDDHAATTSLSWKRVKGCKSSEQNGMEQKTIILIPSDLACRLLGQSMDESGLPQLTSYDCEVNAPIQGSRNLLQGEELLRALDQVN

These are yes or no findings as the source states them, for the method shown. In cells and extracts the contact can be indirect. Some binding calls cover weakened binding; strength is not graded here. For some assays here: Sequences can lack the tags named with a protein.

The target in assay [1] is T1, KSHV-encoded vCyclin (Kaposi's sarcoma associated herpesvirus (KSHV)) (UniProt Q77Q36).
T1 sequence: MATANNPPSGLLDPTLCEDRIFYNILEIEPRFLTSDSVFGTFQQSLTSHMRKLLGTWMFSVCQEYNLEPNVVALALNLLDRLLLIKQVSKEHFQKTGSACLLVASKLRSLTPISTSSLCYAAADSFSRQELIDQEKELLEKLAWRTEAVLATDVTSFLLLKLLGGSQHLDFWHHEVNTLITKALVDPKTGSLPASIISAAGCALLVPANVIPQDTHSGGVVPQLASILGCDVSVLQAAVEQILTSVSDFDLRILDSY
Description: co-IP; lysates of naturally infected KSHV-positive BC3, BCBL1 and JSC1 cells; immunoprecipitation with vCyclin antibodies, blot for HIF1α; KSHV-negative BJAB cells as negative control.

Assay [2] deals with T2, GFP-tagged KSHV-encoded vCyclin (Kaposi's sarcoma associated herpesvirus (KSHV)) (UniProt Q77Q36).
T2 sequence: T1 sequence
The experiment in a line: co-IP; HEK293T cells transfected with GFP-vCyclin, lysed in RIPA buffer, pre-cleared with protein A/G agarose beads; overnight immunoprecipitation with GFP antibody; blot probed with HIF1α or GFP antibodies against 5% input or IgG control.

With HIF1α (from UniProt Q16665 1-826), the binding entry in assay [1] and in assay [2] was “binds” each time.
